Publication PMC10933344, “A lncRNA Dleu2-encoded peptide relieves autoimmunity by facilitating Smad3-mediated Treg induction” (EMBO Reports, 2024)
No constants are given. Whether binding was seen depends on the method and setting. In cells and extracts the contact can be indirect. Some results given as binding are weak or reduced against the parent protein; the word gives no strength.

The chains behind the UniProt entries cited, without tags or fusion partners.
UniProt Q8BUN5: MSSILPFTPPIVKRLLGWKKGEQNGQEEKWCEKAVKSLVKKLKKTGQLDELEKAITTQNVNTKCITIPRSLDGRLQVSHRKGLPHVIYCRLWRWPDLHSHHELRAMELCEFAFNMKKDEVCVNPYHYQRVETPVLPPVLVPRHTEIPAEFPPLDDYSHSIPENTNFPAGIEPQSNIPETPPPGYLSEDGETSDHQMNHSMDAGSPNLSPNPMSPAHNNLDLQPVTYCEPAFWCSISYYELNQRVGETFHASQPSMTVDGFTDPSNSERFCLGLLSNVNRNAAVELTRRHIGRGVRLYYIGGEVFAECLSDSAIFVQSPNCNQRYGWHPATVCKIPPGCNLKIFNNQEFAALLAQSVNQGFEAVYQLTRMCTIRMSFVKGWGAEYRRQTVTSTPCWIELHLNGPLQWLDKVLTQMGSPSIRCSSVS

Biological target: T1, Biotin-labeled Dleu2-17aa (mouse)
T1 sequence (peptide, biotin (position not stated)): MLGRRARRRGRGRRRPA
Experiment: pull-down; Biotin-Dleu2-17aa incubated with EL4 cell lysate, streptavidin-agarose, SDS-PAGE, western blot for Smad3; only the target purified

## SMAD Family Member 3 (Smad3), endogenous (from UniProt Q8BUN5 1-425)
  binding: binds
